# Source: PubChem BioAssay (Tox21)
# Chains of the proteins cited; added tags and fusions are not shown. Lines headed by an entry give the natural chain unless they say otherwise; changes in a name come on top.
# UniProt P28223, whole entry, looked up: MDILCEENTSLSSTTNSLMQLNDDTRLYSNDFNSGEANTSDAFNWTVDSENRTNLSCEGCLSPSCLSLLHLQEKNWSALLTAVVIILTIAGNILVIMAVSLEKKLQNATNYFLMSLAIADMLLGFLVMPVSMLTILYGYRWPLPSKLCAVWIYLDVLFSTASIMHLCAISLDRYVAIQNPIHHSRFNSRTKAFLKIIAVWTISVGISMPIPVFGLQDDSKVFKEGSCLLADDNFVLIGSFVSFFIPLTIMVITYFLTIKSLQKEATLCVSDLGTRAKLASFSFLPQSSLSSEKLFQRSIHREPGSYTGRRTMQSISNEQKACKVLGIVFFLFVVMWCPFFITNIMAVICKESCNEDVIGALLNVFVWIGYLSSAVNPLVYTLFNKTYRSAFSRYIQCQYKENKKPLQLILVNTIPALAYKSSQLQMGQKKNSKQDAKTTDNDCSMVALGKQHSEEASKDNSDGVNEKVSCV
# UniProt P11229: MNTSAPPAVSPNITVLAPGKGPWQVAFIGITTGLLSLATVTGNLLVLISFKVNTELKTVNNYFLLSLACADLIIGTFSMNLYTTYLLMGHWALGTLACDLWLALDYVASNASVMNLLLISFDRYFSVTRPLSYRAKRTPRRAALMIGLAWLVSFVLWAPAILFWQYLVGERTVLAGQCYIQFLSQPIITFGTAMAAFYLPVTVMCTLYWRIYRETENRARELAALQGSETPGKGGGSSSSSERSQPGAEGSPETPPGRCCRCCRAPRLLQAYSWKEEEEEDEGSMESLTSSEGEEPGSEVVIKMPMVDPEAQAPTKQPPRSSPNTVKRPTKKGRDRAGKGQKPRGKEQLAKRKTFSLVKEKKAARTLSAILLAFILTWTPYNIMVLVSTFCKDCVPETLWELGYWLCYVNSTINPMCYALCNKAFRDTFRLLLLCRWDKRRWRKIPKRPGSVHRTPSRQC
# UniProt P14416, whole entry, looked up: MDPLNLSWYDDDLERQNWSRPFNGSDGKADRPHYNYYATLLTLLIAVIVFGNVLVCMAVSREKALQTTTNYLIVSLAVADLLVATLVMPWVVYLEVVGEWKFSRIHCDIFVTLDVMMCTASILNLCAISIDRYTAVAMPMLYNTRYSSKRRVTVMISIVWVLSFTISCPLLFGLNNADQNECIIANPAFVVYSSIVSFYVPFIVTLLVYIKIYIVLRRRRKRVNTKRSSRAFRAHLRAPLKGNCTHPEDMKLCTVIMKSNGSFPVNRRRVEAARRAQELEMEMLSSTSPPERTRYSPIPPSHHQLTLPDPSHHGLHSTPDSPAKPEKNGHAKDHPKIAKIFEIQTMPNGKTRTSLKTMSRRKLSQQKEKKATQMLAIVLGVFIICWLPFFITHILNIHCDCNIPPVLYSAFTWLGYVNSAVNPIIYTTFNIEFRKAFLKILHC
# This list was built around the results that the source calls inconclusive (neither active nor inactive); the mix of calls is not that of the screen. For part of these data: Potencies of inconclusive entries are doubtful fits and often do not repeat. The source made the active and inactive calls. Unless noted, the call rests on the fitted dose curve.
# Key:
# [1] = p53 small molecule agonists, cell-based qHTS assay with human liver microsomes (AID 1963577); conditions: HCT-116 p53RE-bla with human liver microsomes, ratio, 16 h; activation: at 66 µM (top of the series) unless noted;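 on activation: p53 response element beta-lactamase reporter cells with liver microsomes plus NADPH; on the % scale 0 is the no-effect control and ±100 the full control effect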
# Procedure, shortened: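 Steps: plate p53RE-bla cells, incubate 5 h at 37 C; add compound in DMSO; add microsomes (0.5 mg/mL final) and NADPH (0.5 mg/mL final); incubate 16 h at 37 C; add LiveBLAzer, 2 h RT; read fluorescence.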
# [2] = p53 small molecule agonists, cell-based qHTS assay with human liver microsomes: qHTS cell viability counter screen (AID 1963579); further: nearly all actives have a fitted effect of over 45% in size
# Procedure, shortened: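 After the 460/530 nm beta-lactamase read, CellTiter-Glo was added to the same wells and luminescence measured after 30 min at room temperature, giving viability of p53RE-bla cells treated 16 h with compounds plus microsomes and NADPH.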
# [3] = p53 small molecule agonists, cell-based qHTS assay with rat liver microsomes: qHTS cell viability counter screen (AID 1963580); further: nearly all actives have a fitted effect of over 45% in size
# Procedure, shortened: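 In HCT-116 cells carrying a p53 response element-bla reporter, compounds were metabolically activated in situ by rat liver microsomes with NADPH over 16 h. Cell ATP content then served as the cytotoxicity measure.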
# [4] = p53 small molecule agonists, cell-based qHTS assay: qHTS cell viability counter screen (AID 1963581); further: nearly all actives have a fitted effect of over 45% in size
# Procedure, shortened: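 p53RE-bla HCT-116 cells, compounds added 5 h after plating and incubated 16 h at 37 C. Cytotoxicity measured in the same wells as intracellular ATP by CellTiter-Glo luminescence after 30 min at room temperature.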
# [5] = p53 small molecule agonists, cell-based qHTS assay (AID 1963582; active means well fitted activation curve with a large enough effect in the signal ratio in the repeat runs, not every such curve was filed as active; inconclusive means weak or mixed curves; the % refers to the signal ratio); conditions: HCT-116 p53RE-bla reporter, beta-lactamase FRET ratio, 16 h; activation: at 66 µM (top of the series) unless noted
# Procedure, shortened: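 p53RE-bla reporter cells, compounds added in DMSO after 5 h plating, incubated 16 h at 37 C. Beta-lactamase read via 2 h room-temperature LiveBLAzer B/G FRET substrate, fluorescence intensity.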
# [6] = molecular target: 5-hydroxytryptamine receptor 2A (Homo sapiens) (UniProt P28223); assay: 5-hydroxytryptamine receptor 2A (HTR2A) small molecule antagonists, cell-based qHTS assay (AID 1963586); further: nearly all actives have a fitted effect of over 45% in size
# Procedure, shortened: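 Antagonist-mode intracellular calcium assay: DOI (4 nM) added after 5 min compound pre-incubation at room temperature to dye-loaded HTR2A-CHO cells. Fluorescence followed for 3 min, sampled every second.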
# [7] = molecular target: 5-hydroxytryptamine receptor 2A (Homo sapiens) (UniProt P28223); assay: 5-hydroxytryptamine receptor 2A (HTR2A) small molecule agonists, cell-based qHTS assay (AID 1963587); conditions: HTR2A-CHO cells, calcium flux fluorescence, agonist mode; activation: at 76.8 µM (top of the series); further: nearly all actives have a fitted effect of over 30% in size
# Procedure, shortened: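 HTR2A-CHO cells, plated 18 h at 37 C/5% CO2, dye-loaded 1 h at 37 C; compounds in DMSO added by pin tool (agonist mode). Intracellular calcium flux read as kinetic fluorescence on FDSS over 2 min at 1 s intervals.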
# [8] = molecular target: Muscarinic acetylcholine receptor M1 (Homo sapiens) (UniProt P11229); assay: Cholinergic receptor muscarinic 1 (CHRM1) small molecule antagonists, cell-based qHTS assay (AID 1963588); further: nearly all actives have a fitted effect of over 40% in size
# Procedure, shortened: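 CHRM1-CHO calcium-flux assay, antagonist mode. Cells were seeded 18 h, dye-loaded 1 h at 37 C and given compound for 5 min at RT, then acetylcholine was added at 50nM. FDSS fluorescence was read 3 min; 15 concentrations, three runs.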
# [9] = molecular target: Muscarinic acetylcholine receptor M1 (Homo sapiens) (UniProt P11229); assay: Cholinergic receptor muscarinic 1 (CHRM1) small molecule agonists, cell-based qHTS assay (AID 1963589); conditions: CHRM1-CHO cells, agonist mode, calcium flux fluorescence; activation: at 76.8 µM (top of the series); further: nearly all actives have a fitted effect of over 35% in size
# Procedure, shortened: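 CHO cells stably expressing human CHRM1 were loaded with calcium dye for 1 h at 37 C, then compound was added in agonist mode. Intracellular calcium fluorescence was followed kinetically at 1 s intervals. Fifteen concentrations were tested in three independent runs.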
# [10] = cAMP Responsive Elements (CRE) small molecule agonists, cell-based qHTS assay (AID 1963590); conditions: CRE-bla HEK293T, beta-lactamase FRET ratio, 3 h; activation: at 92.4 µM (top of the series) unless noted
# Procedure, shortened: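 CRE-bla HEK 293T cells, 2,000/well in DMEM with 10% dialyzed FBS and 25 mM HEPES, pre-incubated 18 h at 37 C, then exposed to compound 3 h at 37 C. Beta-lactamase reporter read with LiveBLAzer B/G FRET substrate after 2 h at room temperature.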
# [11] = cAMP Responsive Elements (CRE) small molecule antagonists, cell-based qHTS assay (AID 1963591; active means well fitted inhibition curve with a large enough effect in the signal ratio in the repeat runs, not every such curve was filed as active; inconclusive means weak or mixed curves, or effect the other way; the % refers to the signal ratio); conditions: CRE-bla HEK293T, beta-lactamase FRET ratio; activity change, negative = inhibition: at 92.4 µM (top of the series) unless noted
# Procedure, shortened: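 CRE-bla HEK293T cells plated 18 h, then given compound plus NKH477 at 0.25 uM final for 3 h at 37C. Beta-lactamase reporter read with LiveBLAzer B/G FRET substrate after 2 h at room temperature.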
# [12] = molecular target: Beta-2 adrenergic receptor (Homo sapiens) (UniProt P07550); assay: Adrenergic beta2 receptor (ADRB2) small molecule agonists, cell-based qHTS assay (AID 1963593); conditions: CHO-ADRB2 cells, cAMP HTRF, 30 min; activation: at 92.4 µM (top of the series) unless noted;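 on activation: CHO cells stably overexpressing human ADRB2; on the % scale 0 is the no-effect control and ±100 the full control effect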
# Procedure, shortened: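 CHO cells stably over-expressing ADRB2 were plated overnight at 37C, then dosed with compounds plus a stimulation mix containing 100uM IBMX and 25uM Ro-20-1724 for 0.5hr at room temperature. cAMP was measured by HTRF competition, 1hr.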
# [13] = molecular target: D(2) dopamine receptor (Homo sapiens) (UniProt P14416); assay: Dopamine D2 receptor (DRD2) small molecule agonists, cell-based qHTS assay (AID 1963594); conditions: HEK293-DRD2 cAMP HTRF, agonist mode, 30 min; activation: at 92.4 µM (top of the series) unless noted; further: nearly all actives have a fitted effect of over 35% in size
# Procedure, shortened: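 HEK293 cells stably expressing DRD2 were cultured 24 h at 37 C, then given Ro20-1724 (0.1 mM final) and compounds for 10 min at room temperature. NKH477 (200nM) was then added for 30 min. cAMP was read by HTRF.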
# [14] = molecular target: D(2) dopamine receptor (Homo sapiens) (UniProt P14416); assay: Dopamine D2 receptor (DRD2) small molecule antagonists, cell-based qHTS assay (AID 1963595; active means well fitted inhibition curve with a large enough effect in the signal ratio in the repeat runs, with a control signal flat; inconclusive means weak or mixed curves, or effect the other way; the % refers to the signal ratio); conditions: HEK293-DRD2 cAMP HTRF antagonist mode; activity change, negative = inhibition: at 92.4 µM (top of the series) unless noted
# Procedure, shortened: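 Stable D2 receptor HEK293 line, 24 h after seeding. Compound preincubated 10 min, then quinpirole (12 nM) with forskolin analogue NKH477 (200 nM), 30 min, room temperature. Detection by time-resolved FRET of cAMP.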
# [15] = p53 small molecule agonists, cell-based qHTS assay with rat liver microsomes (AID 1963578); conditions: HCT-116 p53RE-bla, beta-lactamase ratio, 16 h; activation: at 66 µM (top of the series) unless noted
# Procedure, shortened: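 Metabolic activation is supplied by rat liver microsomes with NADPH (each 0.5 mg/mL final). p53RE-bla cells incubate with compound 16 h at 37 C; reporter activity is measured by LiveBLAzer fluorescence.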
# Potency means the concentration at half of the fitted maximal effect.
compound,measurement,setting,value
CC(=O)[O][Sn]([c]1ccccc1)([c]1ccccc1)[c]1ccccc1,Potency,[1],inactive
same,Potency,[2],active: 6.46 µM
same,Potency,[3],active: 1.62 µM
same,Potency,[4],active: 10.2 µM
same,Potency,[5],"inconclusive: 0.0457 µM [fluorescent, full curve]"
same,Potency,[6],"inconclusive: 2.37 µM [inhibitor, full curve]"
same,Potency,[7],active: 24.5 µM
same,Potency,[8],"inconclusive: 8.39 µM [inhibitor, partial curve]"
same,Potency,[9],active: 24.5 µM
same,Potency,[10],"inconclusive: 0.686 µM [rising, full curve]"
same,Potency,[11],inconclusive: 1.93 µM
same,Potency,[12],"inconclusive: 61.1 µM [inhibitor, partial curve]"
same,Potency,[13],active: 52.4 µM
same,Potency,[14],active: 3.06 µM
CCOP(=S)(OCC)Oc1ncn(-c2ccccc2)n1,Potency,[1],active: 2.89 µM
same,Potency,[15],"inconclusive: 2.04 µM [fluorescent, partial curve]"
same,Potency,[6],inactive
same,Potency,[10],inconclusive: 61.1 µM
same,Potency,[11],"inconclusive: 48.6 µM [activator, partial curve]"
same,activation,[12],inconclusive: -8%
CCOP(=S)(S)OCC,Potency,[1],"inconclusive: 43 µM [activator, partial curve]"
same,Potency,[15],"inconclusive: 19.2 µM [fluorescent, single point]"
same,Potency,[12],inactive
NCC1(CC(=O)O)CCCCC1,Potency,[1],inactive
same,Potency,[2],"inconclusive: 22.3 µM [rising, single point]"
COP(=O)(OC)O/C(=C/Cl)c1cc(Cl)c(Cl)cc1Cl,Potency,[1],"inconclusive: 5.43 µM [fluorescent, partial curve]"
same,Potency,[15],"inconclusive: 6.09 µM [fluorescent, partial curve]"
same,Potency,[6],active: 15.8 µM
same,Potency,[11],"inconclusive: 57.5 µM [inhibitor, partial curve, poor fit]"
same,Potency,[12],"inconclusive: 81.3 µM [inhibitor, single point]"

# Random excerpt: 2 records from the list.
compound,measurement,setting,value
CC(=O)[O][Sn]([c]1ccccc1)([c]1ccccc1)[c]1ccccc1,Potency,[7],active: 24.5 µM
CCOP(=S)(S)OCC,Potency,[15],"inconclusive: 19.2 µM [fluorescent, single point]"
